Results are given in words; binding and its absence hold for the method and conditions named. Some entries that bind do so weakly or less than the wild type.
Molecular target: Brahma related gene 1 (Brg1), mouse (mouse (endogenous in liver)) (UniProt Q3TKT4)
Test: Re-ChIP; sequential chromatin immunoprecipitation with two antibodies from formaldehyde cross-linked, sonicated liver chromatin of mice fed an HFHC or MCD diet; qPCR of cholesterogenic gene promoters

Chains of the proteins cited; added tags and fusions are not shown.
UniProt Q3TKT4: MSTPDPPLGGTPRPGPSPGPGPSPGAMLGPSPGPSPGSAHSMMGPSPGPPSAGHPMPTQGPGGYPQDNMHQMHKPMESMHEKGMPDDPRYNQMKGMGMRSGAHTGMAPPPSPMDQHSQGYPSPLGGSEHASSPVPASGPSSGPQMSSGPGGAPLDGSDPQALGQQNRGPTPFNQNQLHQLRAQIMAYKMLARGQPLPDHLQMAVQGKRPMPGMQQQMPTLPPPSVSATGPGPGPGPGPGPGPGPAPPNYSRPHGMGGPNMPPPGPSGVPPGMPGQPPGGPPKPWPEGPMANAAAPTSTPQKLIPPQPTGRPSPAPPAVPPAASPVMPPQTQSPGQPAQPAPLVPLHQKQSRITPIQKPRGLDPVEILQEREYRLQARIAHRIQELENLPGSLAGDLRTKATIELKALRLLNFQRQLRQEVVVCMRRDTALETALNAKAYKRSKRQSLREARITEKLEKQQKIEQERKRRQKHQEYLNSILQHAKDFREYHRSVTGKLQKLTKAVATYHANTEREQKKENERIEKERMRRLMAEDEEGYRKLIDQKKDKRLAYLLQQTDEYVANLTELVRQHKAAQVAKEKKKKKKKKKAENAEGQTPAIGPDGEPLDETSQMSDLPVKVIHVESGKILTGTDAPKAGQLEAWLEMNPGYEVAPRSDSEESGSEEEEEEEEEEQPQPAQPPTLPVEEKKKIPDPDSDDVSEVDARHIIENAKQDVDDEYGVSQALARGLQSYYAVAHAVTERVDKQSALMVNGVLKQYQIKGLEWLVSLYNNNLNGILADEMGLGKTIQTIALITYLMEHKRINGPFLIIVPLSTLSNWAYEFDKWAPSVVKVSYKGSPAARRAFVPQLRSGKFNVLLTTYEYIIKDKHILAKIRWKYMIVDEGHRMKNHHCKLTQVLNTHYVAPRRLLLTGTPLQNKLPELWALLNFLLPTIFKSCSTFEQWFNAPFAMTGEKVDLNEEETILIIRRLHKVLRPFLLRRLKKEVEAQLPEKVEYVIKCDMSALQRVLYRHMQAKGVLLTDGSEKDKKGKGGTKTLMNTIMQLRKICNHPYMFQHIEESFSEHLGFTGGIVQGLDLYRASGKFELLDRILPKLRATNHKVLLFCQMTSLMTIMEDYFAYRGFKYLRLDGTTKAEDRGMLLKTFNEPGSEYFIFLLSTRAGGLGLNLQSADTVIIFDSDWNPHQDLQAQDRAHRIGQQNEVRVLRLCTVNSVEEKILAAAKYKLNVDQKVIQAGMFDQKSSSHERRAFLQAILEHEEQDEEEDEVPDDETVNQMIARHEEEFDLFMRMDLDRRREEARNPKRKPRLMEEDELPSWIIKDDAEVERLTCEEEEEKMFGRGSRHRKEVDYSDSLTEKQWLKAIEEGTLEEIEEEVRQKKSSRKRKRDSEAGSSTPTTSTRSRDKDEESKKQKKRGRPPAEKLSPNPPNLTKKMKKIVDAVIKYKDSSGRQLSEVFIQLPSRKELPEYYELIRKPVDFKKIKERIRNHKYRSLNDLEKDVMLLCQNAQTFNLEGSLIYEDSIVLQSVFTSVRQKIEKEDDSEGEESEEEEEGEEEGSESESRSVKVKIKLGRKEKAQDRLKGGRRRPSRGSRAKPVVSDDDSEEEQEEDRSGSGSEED

binding: binds
B1: KDM3A, mouse (protein, UniProt Q6PCM1 1-1323)
chain: MVLTLGESWPVLVGKRFLSLSAAEGNEGGQDNWDLERVAEWPWLSGTIRAVSHTDVTKKDLKVCVEFDGESWRKRRWIDVYSLQRKAFLVEHNLVLAERKSPEVPEQVIQWPAIMYKSLLDKAGLGAITSVRFLGDQQSVFVSKDLLKPIQDVNSLRLSLTDNQTVSKEFQALIVKHLDESHLLQGDKNLVGSEVKIYSLDPSTQWFSATVVHGNPSSKTLQVNCEEIPALKIVDPALIHVEVVHDNFVTCGNSTRTGAVKRKSSENNGSSVSKQAKSCSEASPSMCPVQSVPTTVFKEILLGCTAATPSSKDPRQQNTPQAANSPPNIGAKLPQGCHKQNLPEELSSCLNTKPEVPRTKPDVCKEGLLSSKSSQVGAGDLKILSEPKGSCIQPKTNTDQESRLESAPQPVTGLPKECLPAKTSSKAELDIATTPELQKHLEHAASTSDDLSDKPEVKAGVTSLNSCAEKKVEPSHLGSQSQNLKETSVKVDNESCCTRSSNKTQTPPARKSVLTDPDKVRKLQQSGEAFVQDDSCVNIVAQLPKCRECRLDSLRKDKDQQKDSPVFCRFFHFRRLQFNKHGVLRVEGFLTPNKYDSEAIGLWLPLTKNVVGTDLDTAKYILANIGDHFCQMVISEKEAMSTIEPHRQVAWKRAVKGVREMCDVCDTTIFNLHWVCPRCGFGVCVDCYRMKRKNCQQGAAYKTFSWIRCVKSQIHEPENLMPTQIIPGKALYDVGDIVHSVRAKWGIKANCPCSNRQFKLFSKPALKEDLKQTSLSGEKPTLGTMVQQSSPVLEPVAVCGEAASKPASSVKPTCPTSTSPLNWLADLTSGNVNKENKEKQLTMPILKNEIKCLPPLPPLNKPSTVLHTFNSTILTPVSNNNSGFLRNLLNSSTAKTENGLKNTPKILDDIFASLVQNKTSSDSSKRPQGLTIKPSILGFDTPHYWLCDNRLLCLQDPNNKSNWNVFRECWKQGQPVMVSGVHHKLNTELWKPESFRKEFGEQEVDLVNCRTNEIITGATVGDFWDGFEDVPNRLKNDKEKEPMVLKLKDWPPGEDFRDMMPSRFDDLMANIPLPEYTRRDGKLNLASRLPNYFVRPDLGPKMYNAYGLITPEDRKYGTTNLHLDVSDAANVMVYVGIPKGQCEQEEEVLRTIQDGDSDELTIKRFIEGKEKPGALWHIYAAKDTEKIREFLKKVSEEQGQDNPADHDPIHDQSWYLDRSLRKRLYQEYGVQGWAIVQFLGDVVFIPAGAPHQVHNLYSCIKVAEDFVSPEHVKHCFWLTQEFRYLSQTHTNHEDKLQVKNVIYHAVKDAVAMLKASESSLGKP

Reference: article PMC7243037
